Here are results for four substances from US20140302026A1.

Protein sequences, listed by entry. Tags and fused reporters are not part of them. Lines headed by an entry give the natural chain unless they say otherwise; changes in a name come on top. Chains listed by the source or under a name are the forms on record and can include a tag or linker. Residues count along the entry.
Human VEGF (R&D) (P15692, form named): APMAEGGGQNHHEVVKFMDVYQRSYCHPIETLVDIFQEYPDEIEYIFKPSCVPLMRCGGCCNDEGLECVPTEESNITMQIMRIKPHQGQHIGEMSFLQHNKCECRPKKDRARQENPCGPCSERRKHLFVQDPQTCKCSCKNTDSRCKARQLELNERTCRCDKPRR
UniProt P02751, residues 32-2477: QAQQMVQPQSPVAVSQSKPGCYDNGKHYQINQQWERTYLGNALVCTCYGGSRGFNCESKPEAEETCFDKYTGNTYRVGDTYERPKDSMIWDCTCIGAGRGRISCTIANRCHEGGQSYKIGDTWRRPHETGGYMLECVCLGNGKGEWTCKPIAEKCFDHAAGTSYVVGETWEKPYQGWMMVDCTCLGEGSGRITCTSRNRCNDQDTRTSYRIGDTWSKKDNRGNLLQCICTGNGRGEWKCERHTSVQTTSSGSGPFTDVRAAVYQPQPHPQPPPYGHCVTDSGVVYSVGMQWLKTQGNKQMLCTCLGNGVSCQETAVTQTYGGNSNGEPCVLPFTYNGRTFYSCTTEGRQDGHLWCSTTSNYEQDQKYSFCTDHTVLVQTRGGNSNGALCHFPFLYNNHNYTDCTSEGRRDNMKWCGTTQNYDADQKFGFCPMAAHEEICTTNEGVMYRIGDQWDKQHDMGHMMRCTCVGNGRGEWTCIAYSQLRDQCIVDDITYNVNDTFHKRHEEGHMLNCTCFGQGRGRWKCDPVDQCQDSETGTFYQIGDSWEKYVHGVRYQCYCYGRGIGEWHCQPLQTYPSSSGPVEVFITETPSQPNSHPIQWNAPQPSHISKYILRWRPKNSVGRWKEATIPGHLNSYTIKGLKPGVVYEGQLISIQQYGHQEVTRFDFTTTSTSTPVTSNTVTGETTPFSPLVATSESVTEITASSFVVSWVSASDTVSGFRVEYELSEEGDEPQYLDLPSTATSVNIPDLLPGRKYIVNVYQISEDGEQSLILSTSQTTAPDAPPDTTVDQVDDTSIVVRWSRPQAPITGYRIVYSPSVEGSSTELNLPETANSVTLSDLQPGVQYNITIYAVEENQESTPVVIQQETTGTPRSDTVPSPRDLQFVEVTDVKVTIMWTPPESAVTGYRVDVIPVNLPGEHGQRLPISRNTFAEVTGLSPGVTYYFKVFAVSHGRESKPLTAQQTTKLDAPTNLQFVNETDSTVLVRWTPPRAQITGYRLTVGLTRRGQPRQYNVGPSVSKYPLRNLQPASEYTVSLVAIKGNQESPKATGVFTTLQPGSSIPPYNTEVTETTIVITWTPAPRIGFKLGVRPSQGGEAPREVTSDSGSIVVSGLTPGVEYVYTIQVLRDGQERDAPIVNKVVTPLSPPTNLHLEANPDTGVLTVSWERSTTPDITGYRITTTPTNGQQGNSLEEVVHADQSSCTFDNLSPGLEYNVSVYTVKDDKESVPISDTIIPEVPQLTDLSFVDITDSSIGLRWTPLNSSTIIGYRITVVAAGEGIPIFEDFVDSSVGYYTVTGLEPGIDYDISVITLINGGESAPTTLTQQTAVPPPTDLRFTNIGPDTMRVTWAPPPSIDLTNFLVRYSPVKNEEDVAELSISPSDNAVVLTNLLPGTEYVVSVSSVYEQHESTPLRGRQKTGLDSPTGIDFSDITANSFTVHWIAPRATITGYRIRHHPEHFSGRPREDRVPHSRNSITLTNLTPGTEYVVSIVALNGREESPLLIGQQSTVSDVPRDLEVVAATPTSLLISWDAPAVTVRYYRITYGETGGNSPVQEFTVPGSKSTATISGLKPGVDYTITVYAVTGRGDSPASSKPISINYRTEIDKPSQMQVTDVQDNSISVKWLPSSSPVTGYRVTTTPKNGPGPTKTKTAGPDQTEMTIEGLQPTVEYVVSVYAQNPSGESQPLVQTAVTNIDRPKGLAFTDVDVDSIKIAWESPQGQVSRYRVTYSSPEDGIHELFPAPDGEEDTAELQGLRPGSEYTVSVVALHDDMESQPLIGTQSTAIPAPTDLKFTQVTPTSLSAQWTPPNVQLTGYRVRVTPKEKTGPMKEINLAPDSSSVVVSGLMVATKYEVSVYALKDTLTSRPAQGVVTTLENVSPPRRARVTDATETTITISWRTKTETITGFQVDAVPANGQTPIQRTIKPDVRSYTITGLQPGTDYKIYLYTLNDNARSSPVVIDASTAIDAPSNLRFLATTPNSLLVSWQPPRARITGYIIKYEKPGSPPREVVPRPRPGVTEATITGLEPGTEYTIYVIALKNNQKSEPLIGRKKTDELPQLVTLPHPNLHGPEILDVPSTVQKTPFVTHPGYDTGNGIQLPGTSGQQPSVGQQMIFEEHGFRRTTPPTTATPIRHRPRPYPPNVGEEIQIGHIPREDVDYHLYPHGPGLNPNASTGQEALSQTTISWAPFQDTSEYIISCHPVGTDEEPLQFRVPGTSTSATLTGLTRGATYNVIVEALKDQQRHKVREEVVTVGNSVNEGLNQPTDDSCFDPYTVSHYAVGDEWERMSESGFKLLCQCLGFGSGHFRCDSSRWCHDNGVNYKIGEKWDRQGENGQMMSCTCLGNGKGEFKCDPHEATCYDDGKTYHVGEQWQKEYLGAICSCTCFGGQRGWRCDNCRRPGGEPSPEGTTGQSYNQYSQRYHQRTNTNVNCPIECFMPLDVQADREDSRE
human Fc-endostatin (P39060, residues 1572-1754): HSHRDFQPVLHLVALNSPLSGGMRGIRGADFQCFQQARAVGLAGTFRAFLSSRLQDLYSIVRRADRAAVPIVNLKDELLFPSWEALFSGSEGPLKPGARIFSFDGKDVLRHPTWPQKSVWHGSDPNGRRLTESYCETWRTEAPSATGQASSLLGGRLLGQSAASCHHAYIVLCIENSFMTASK
27 amino acid NH2-terminal region of the endostatin domain (peptide) (P39060, residues 1572-1598): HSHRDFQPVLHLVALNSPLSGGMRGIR

One assay has as its target Human VEGF (R&D) (human) (UniProt P15692). Description: preliminary data; peptide competition with VEGF-Fc-Endostatin binding.
In assay [1] the target is fibronectin (UniProt P02751). Description: discussion of the examples.
Assay [2] addresses fibronectin (UniProt P02751). Description: ELISA; proteins coated at 10 µg/ml, fibronectin as ligand.
Assay [3] addresses fibronectin (UniProt P02751). In words: SPR (Biacore T100); protein immobilised on CM4, fibronectin as analyte.
The target in assay [4] is fibronectin (UniProt P02751). Description: summary of the earlier examples (ELISA, Biacore). In general terms: An ELISA detects its analyte on a solid surface through an enzyme-linked reagent.
In assay [5] the target is fibronectin (UniProt P02751). In words: SPR (Biacore); data not shown.
Assay [6] concerns the target fibronectin (UniProt P02751). In words: summary of the earlier examples (IP, ELISA, Biacore).

These are yes or no findings as the source states them, for the method shown. Some results given as binding are weak or reduced against the parent protein; the word gives no strength.

On to “27 amino acid NH2-terminal region of the endostatin domain (peptide) (from UniProt P39060 1572-1598)”, for which, in the assay with Human VEGF (R&D) (human), the binding entry was “binds”.
As for “Human VEGF (R&D) (from UniProt P15692 27-191) (ligand)”, the binding entry in the assay with fibronectin [1], in the assay with fibronectin [2], with fibronectin [3] and with fibronectin [4] was “binds” throughout.
For the substance “human Fc-endostatin (from UniProt P39060 1572-1754) (Fc fusion)”, the binding result with fibronectin [1], in the assay with fibronectin [5] and with fibronectin [6] was “binds” in each case.
Consider “human NC-1 (hNC-1) trimer of collagen 18 (from UniProt P39060 1443-1754)”, for which the binding result with fibronectin [1], in the assay with fibronectin [2] and in the assay with fibronectin [3] was “binds” in each case.
